Entries after “also recorded” stand apart in the source; their conditions may differ.
Test system: K562 cells
Assay: Subcellular localization of AlDeSense and BAAA
Type: cell-based, human
Conditions: co-staining with organelle trackers

SMILES	subcellular localization
Cc1cc(C)n2c1C=C1C=CC(CCC(=O)NCC=O)=[N+]1[B-]2(F)F [BAAA, BODIPY-aminoacetaldehyde, reference compound]	localizes to the ER and mitochondria
Cc1cc(C=O)ccc1-c1c2cc(F)c(=O)cc-2oc2cc(O)c(F)cc12 [AlDeSense]	stain the cytoplasm; also recorded: localizes in the cytosol

Reference: patent US11407725B2 (The Board of Trustees of the University of Illinois, priority 2018, dated 2022)
